Reference: PubChem BioAssay AID1508588 (Peter MacCallum Cancer Centre, 2020)

Assay: 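Genome-wide search for knock-downs that heighten vemurafenib action in melanoma cells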 (primary screen)
System: human WM266.4 melanoma cells (BRAF V600 mutant)
Reagent: siRNA pool against human genes, 40 nM
Duration: 96 h from transfection to read-out
Treatment: vemurafenib 300 nM (about IC25), added 48 h after transfection, for 48 h; comparison arm got DMSO vehicle only
Read-out: 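Ratios to non-targeting siRNA for cell gain, counted as DAPI nuclei after minus before drug and averaged over two replicates, and for absorbance-read medium lactate per cell; both binned into fold-change classes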
Scale: cell gain with vemurafenib: higher = more cell gain than with non-targeting siRNA; lactate per cell with vemurafenib: higher = more lactate made per cell
Hit rule: 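a knock-down counts as enhancing when its fold-change classes with vehicle and with vemurafenib, taken together, show a stronger drug effect on cell gain or lactate per cell; exact class pairs not stated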
Meaning of the calls: active = enhances vemurafenib effect; inactive = no enhancement seen
Shown is a random part of about 18,000 deposited reagents. Over the whole deposit, 790 (4.4%) are marked active. 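Calls rest on a combination of fold-change classes in drug and vehicle arms, not all shown here.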 Entries without a mark were called inactive. Reagent sequences are not shown.

Knock-down of OR1D5 (olfactory receptor family 1 subfamily D member 5) resulted in: cell gain with vemurafenib 0.73; lactate per cell with vemurafenib 1.02.
For COA3 (cytochrome c oxidase assembly factor 3), the values are cell gain with vemurafenib 0.4; lactate per cell with vemurafenib 1.9.
With knock-down of TMA16 (translation machinery associated 16 homolog) the results were cell gain with vemurafenib 0.55; lactate per cell with vemurafenib 0.52.
With knock-down of UBE2K (ubiquitin conjugating enzyme E2 K), the record shows cell gain with vemurafenib 0.16 (active); lactate per cell with vemurafenib 0.95.
For LRRC39 (leucine rich repeat containing 39) the deposit lists cell gain with vemurafenib 0.59 (active); lactate per cell with vemurafenib -0.06.
For MTDH (metadherin), the entry reads cell gain with vemurafenib 0.09; lactate per cell with vemurafenib 1.02.
Against SUGCT (succinyl-CoA:glutarate-CoA transferase), the values are cell gain with vemurafenib 0.58; lactate per cell with vemurafenib 0.99.
Against ZDHHC8 (zDHHC palmitoyltransferase 8), the values are cell gain with vemurafenib 0.19 (active); lactate per cell with vemurafenib 0.41.
Silencing of DIPK2B (divergent protein kinase domain 2B) gave: cell gain with vemurafenib 0.86; lactate per cell with vemurafenib 1.19.
Depletion of DLAT (dihydrolipoamide S-acetyltransferase) came out at: cell gain with vemurafenib 0.94; lactate per cell with vemurafenib 0.2.
Against SPOCK2, the values are cell gain with vemurafenib 0.39; lactate per cell with vemurafenib 0.96.
Knock-down of DZIP1L (DAZ interacting zinc finger protein 1 like) gave: cell gain with vemurafenib 0.49; lactate per cell with vemurafenib 0.7.
With knock-down of FBXL2 (F-box and leucine rich repeat protein 2), the screen gave cell gain with vemurafenib 0.88; lactate per cell with vemurafenib 0.58.
After knock-down of CFDP1 (chromatin remodeling protein CFDP1), the screen gave cell gain with vemurafenib 0.34; lactate per cell with vemurafenib 0.71.
Against CYTH4 (cytohesin 4), the values are cell gain with vemurafenib 0.77; lactate per cell with vemurafenib 1.14.
Silencing of EMILIN1 (elastin microfibril interfacer 1) gave: cell gain with vemurafenib 0.25; lactate per cell with vemurafenib 1.13.
TMEM186 (transmembrane protein 186) showed cell gain with vemurafenib 0.41; lactate per cell with vemurafenib 0.94.
RPL6 (ribosomal protein L6) gave cell gain with vemurafenib -0.08; lactate per cell with vemurafenib 1.77.
TAAR9 (trace amine associated receptor 9) showed cell gain with vemurafenib 0.55; lactate per cell with vemurafenib 0.51.
For CDK4 (cyclin dependent kinase 4), the entry reads cell gain with vemurafenib 0.95; lactate per cell with vemurafenib 0.61.
KNG1 (kininogen 1) gave cell gain with vemurafenib 0.54; lactate per cell with vemurafenib 1.23.
NUP37 (nucleoporin 37) showed cell gain with vemurafenib 0.99 (active); lactate per cell with vemurafenib 0.48.
After knock-down of FOXN1 (forkhead box N1) the results were cell gain with vemurafenib 0.64; lactate per cell with vemurafenib 0.8.
TOR4A (torsin family 4 member A) showed cell gain with vemurafenib 0.65; lactate per cell with vemurafenib 0.98.
After knock-down of NRBF2 (nuclear receptor binding factor 2), the screen gave cell gain with vemurafenib 0.65; lactate per cell with vemurafenib 1.15.

3 successive entries already listed, quoted:
TAAR9 (trace amine associated receptor 9) — cell gain with vemurafenib = 0.55; lactate per cell with vemurafenib = 0.51
CDK4 (cyclin dependent kinase 4) — cell gain with vemurafenib = 0.95; lactate per cell with vemurafenib = 0.61
KNG1 (kininogen 1) — cell gain with vemurafenib = 0.54; lactate per cell with vemurafenib = 1.23

The results go on:
CILP2 (cartilage intermediate layer protein 2) gave cell gain with vemurafenib 0.08; lactate per cell with vemurafenib 2.99.
RGS14 (regulator of G protein signaling 14) gave cell gain with vemurafenib 0.4; lactate per cell with vemurafenib 0.52.
Silencing of TSPEAR (thrombospondin type laminin G domain and EAR repeats) resulted in: cell gain with vemurafenib 0.5; lactate per cell with vemurafenib 0.91.
Knock-down of TYMSOS (TYMS opposite strand RNA) gave: cell gain with vemurafenib 0.42 (active); lactate per cell with vemurafenib 0.52.
Against OTUD6B (OTU deubiquitinase 6B), the values are cell gain with vemurafenib 0.82; lactate per cell with vemurafenib 0.9.
Against TUBA1A (tubulin alpha 1a), the values are cell gain with vemurafenib -0.09; lactate per cell with vemurafenib 3.1.
Silencing of SEC24C (SEC24 homolog C, COPII component) resulted in: cell gain with vemurafenib 0.84 (active); lactate per cell with vemurafenib 0.45.
With knock-down of IKBKG the results were cell gain with vemurafenib 0.64; lactate per cell with vemurafenib 1.71.
For TMEM263 (transmembrane protein 263) the deposit lists cell gain with vemurafenib 0.42; lactate per cell with vemurafenib 1.03.
Knock-down of TRAPPC12 (trafficking protein particle complex subunit 12) gave: cell gain with vemurafenib 0.18; lactate per cell with vemurafenib 1.81.
L3MBTL4 (L3MBTL histone methyl-lysine binding protein 4) showed cell gain with vemurafenib 0.87; lactate per cell with vemurafenib 0.45.
After knock-down of MTUS2 (microtubule associated scaffold protein 2) the results were cell gain with vemurafenib 0.38; lactate per cell with vemurafenib 1.54.
After knock-down of GYS1 (glycogen synthase 1), the screen gave cell gain with vemurafenib 0.66; lactate per cell with vemurafenib 1.16.
Against IRAK1BP1 (interleukin 1 receptor associated kinase 1 binding protein 1), the values are cell gain with vemurafenib 0.8; lactate per cell with vemurafenib 0.86.
ZNF669 (zinc finger protein 669) scored cell gain with vemurafenib 0.01; lactate per cell with vemurafenib 1.52.
Against PCDH9 (protocadherin 9), the values are cell gain with vemurafenib 0.66 (active); lactate per cell with vemurafenib 0.28.
With knock-down of SLC35G5, the record shows cell gain with vemurafenib 0.82; lactate per cell with vemurafenib 0.26.
KCNF1 showed cell gain with vemurafenib 0.64; lactate per cell with vemurafenib 0.52.
For RDH14 (retinol dehydrogenase 14) the deposit lists cell gain with vemurafenib 0.48; lactate per cell with vemurafenib 0.81.
CHGB (chromogranin B) showed cell gain with vemurafenib 0.97; lactate per cell with vemurafenib 0.9.
Against LZTR1 (leucine zipper like post translational regulator 1), the values are cell gain with vemurafenib 0.62; lactate per cell with vemurafenib 0.74.
After knock-down of CCDC88C (coiled-coil and HOOK domain protein 88C) the results were cell gain with vemurafenib 1.02; lactate per cell with vemurafenib 1.66.
PROC (protein C, inactivator of coagulation factors Va and VIIIa) showed cell gain with vemurafenib 0.13; lactate per cell with vemurafenib 0.85.
After knock-down of TM9SF2 (transmembrane 9 superfamily member 2) the results were cell gain with vemurafenib 1.12 (active); lactate per cell with vemurafenib 0.39.
Depletion of VDAC2 (voltage dependent anion channel 2) gave: cell gain with vemurafenib 0.44; lactate per cell with vemurafenib 1.62.
RTP4 (receptor transporter protein 4) gave cell gain with vemurafenib 0.7; lactate per cell with vemurafenib 1.15.
With knock-down of TMPRSS4 (transmembrane serine protease 4), the record shows cell gain with vemurafenib 0.57; lactate per cell with vemurafenib 1.01.
